Where “and” joins values, the source holds several entries; their conditions need not be identical. Equal entries are not always repeated. Further values from the same series stand in other lists.
Columns and labels:
[1] = Stability of (7aS,2′S)-2-oxo-clopidogrel in plasma at −80° C., screening of reducing agent type (Example 5); type: in vitro ADME
Description: (§1) S2. Plasma sample pre-treatment: taking 100 μl of the plasma, adding 5 μl of an internal standard working solution and 300 μl of acetonitrile respectively; after vortex mixing, centrifuging at 2-8° C. and 10,000 r/min for 10 min, and collecting the supernatant for later use.
(§2) S3. LC-MS/MS analysis: injecting 10 μl of the supernatant prepared from step S2 for determination, where the liquid chromatography conditions are: • the chromatographic column is Kinetex® 1.7 μm C18 100 A 100×2.1 mm; the column temperature is 40° C.; the mobile phase is acetonitrile-0.2% aqueous formic acid solution with a flow rate of 0.2 ml/min; and a gradient elution is carried out as specified in the table below:
(§3) ESI ion source, positive ion detection in multiple reaction monitoring mode (MRM); the quantitatively analyzed ions (7aS,2′S)-2-oxo-clopidogrel: m/z 338.100→155.000, IS: m/z 341.100→158.000, a capillary voltage of 4.0 KV, a cone voltage of 25 V, a desolvation gas temperature of 400° C. and a source temperature of 150° C. The optimal collision energy is 20 eV.
Blank plasma was taken and different antioxidants (DTT, TCEP, ME) were added to prepare plasma containing an antioxidant at a concentration of 100 mg/ml. Subsequently, standard series solution of (7aS,2′S)-2-oxo-clopidogrel was added separately to prepare quality control samples with two concentrations of (7aS,2′S)-2-oxo-clopidogrel (0.1 and 12.0 ng/ml), 3 samples for each concentration. They were placed in a refrigerator at −80° C., and the plasma samples at different placing time points were taken to examine the stability by pre-treating the plasma samples according to the method of S2 of Example 1, followed by LC/MS/MS determination according to the method of S3.

[2] = Stability of (7aS,2′S)-2-oxo-clopidogrel in plasma containing the reducing agent (Example 8); type: in vitro ADME, human; conditions: plasma with reducing agent; for Measured concentration: single replicates
Description: S1. Whole blood treatment: taking 3 ml of human whole blood anticoagulated with EDTA-K2 after oral administration of (7aS,2′S)-2-oxo-clopidogrel, cooling to 4° C. on ice, then adding thereto 60 μl of tris(2-carboxyethyl) phosphine at 100 mg/ml; shaking well and then centrifuging (2-8° C., 3000 rpm for 10 min), and collecting plasma for later use.
as §1, §2, §3
Blank plasma was taken and operated according to S1 of Example 1 to obtain a blank plasma containing the reducing agent. Subsequently, a standard series solution of (7aS,2′S)-2-oxo-clopidogrel was added to prepare quality control samples containing (7aS,2′S)-2-oxo-clopidogrel at concentrations of 0.1 and 12 ng/ml. The plasma samples were examined for stability after ice box short-term placement, stability after room temperature short-term placement, stability after freeze-thaw cycle and stability after long-term cryopreservation.
The plasma samples at different placing time points were taken to examine the stability by pre-treating the plasma samples according to the method of S2 of Example 1, followed by LC/MS/MS determination according to the method of S3.

[3] = placing below −60° C. for 36 days, theoretical 12.0 ng/mL
[4] = placing in ice box for 4 h, theoretical 0.1 ng/mL

Measured value ([1]; DTT 100 mg/ml, theoretical 0.1 ng/mL, day 0): 0.1022 ng/mL | Measured value ([1]; DTT 100 mg/ml, theoretical 0.1 ng/mL, day 10): 0.1033 ng/mL | Measured value ([1]; DTT 100 mg/ml, theoretical 0.1 ng/mL, day 30): 0.0955 ng/mL | Measured value ([1]; DTT 100 mg/ml, theoretical 0.1 ng/mL, day 60): 0.0899 ng/mL | Measured value ([1]; DTT 100 mg/ml, theoretical 12.0 ng/mL, day 0): 12.1435 ng/mL | Measured value ([1]; DTT 100 mg/ml, theoretical 12.0 ng/mL, day 10): 12.0024 ng/mL | Measured value ([1]; DTT 100 mg/ml, theoretical 12.0 ng/mL, day 30): 11.8674 ng/mL | Measured value ([1]; DTT 100 mg/ml, theoretical 12.0 ng/mL, day 60): 11.0928 ng/mL | Measured value ([1]; ME 100 mg/ml, theoretical 0.1 ng/mL, day 0): 0.1022 ng/mL | Measured value ([1]; ME 100 mg/ml, theoretical 0.1 ng/mL, day 10): 0.1006 ng/mL | Measured value ([1]; ME 100 mg/ml, theoretical 0.1 ng/mL, day 30): 0.0915 ng/mL | Measured value ([1]; ME 100 mg/ml, theoretical 0.1 ng/mL, day 60): 0.0866 ng/mL | Measured value ([1]; ME 100 mg/ml, theoretical 12.0 ng/mL, day 0): 12.1435 ng/mL | Measured value ([1]; ME 100 mg/ml, theoretical 12.0 ng/mL, day 10): 11.9024 ng/mL | Measured value ([1]; ME 100 mg/ml, theoretical 12.0 ng/mL, day 30): 11.5744 ng/mL | Measured value ([1]; ME 100 mg/ml, theoretical 12.0 ng/mL, day 60): 10.5488 ng/mL | Measured value ([1]; TCEP 100 mg/ml, theoretical 0.1 ng/mL, day 0): 0.1022 ng/mL | Measured value ([1]; TCEP 100 mg/ml, theoretical 0.1 ng/mL, day 10): 0.1053 ng/mL | Measured value ([1]; TCEP 100 mg/ml, theoretical 0.1 ng/mL, day 30): 0.0993 ng/mL | Measured value ([1]; TCEP 100 mg/ml, theoretical 0.1 ng/mL, day 60): 0.1008 ng/mL | Measured value ([1]; TCEP 100 mg/ml, theoretical 12.0 ng/mL, day 0): 12.1435 ng/mL | Measured value ([1]; TCEP 100 mg/ml, theoretical 12.0 ng/mL, day 10): 12.0566 ng/mL | Measured value ([1]; TCEP 100 mg/ml, theoretical 12.0 ng/mL, day 30): 12.2674 ng/mL | Measured value ([1]; TCEP 100 mg/ml, theoretical 12.0 ng/mL, day 60): 12.0928 ng/mL | Measured concentration ([2]; placing below −60° C. for 36 days, theoretical 0.1 ng/mL): 0.0987 ng/mL and 0.0933 ng/mL | Average measured concentration [2, 3]: 11.7299 ng/mL | Average measured concentration [2, 4]: 0.1000 ng/mL | Measured concentration [2, 4]: 0.0993 ng/mL and 0.1020 ng/mL
Structure (SMILES): COC(=O)[C@H](c1ccccc1Cl)N1CC[C@@H]2SC(=O)C=C2C1 [(7aS,2′S)-2-oxo-clopidogrel, methyl(S)-2-(2-chlorophenyl)-2-((S)-2-oxo-2,6,7,7a-tetrahydrothieno[3,2-c]pyridin-5 (4H)-yl)acetate]
Measured concentration [2, 3]: 11.6573 ng/mL and 11.9738 ng/mL and 11.7638 ng/mL and 11.8026 ng/mL and 11.4518 ng/mL

Source: US20260140098A1, “METHOD FOR TREATING PLASMA SAMPLE CONTAINING (7aS,2'S)-2-OXO-CLOPIDOGREL AND METHOD FOR DETERMINING THE SAME” (CHENGDU SHIBEIKANG BIOMEDICAL TECHNOLOGY CO., LTD., priority 2021, published 2026)
